Test results reported in the supplement of paper PMC10735217.
Values joined by “and” are separate entries in the source; they are usually repeats but may differ in a detail not shown here. Identical values can stand only once. Counter-ions that a name gives are not always drawn. The list shows a part of the results. This data set is noisy: repeats of one test often differ as much as different tests do.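 In a drug-repurposing library screen, luminescence reads luciferase driven by eight TEAD-binding elements, stably integrated into human kidney-derived cells. Compounds scoring over five robust Z scores above the plate mean are called hits.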

System: HEK293A TEAD-LUC reporter
Experiment: TEAD-luciferase reporter activity (YAP activation), robust Z score vs plate; higher = stronger YAP/TEAD activation
Conditions: 24 h

Row | Structure (SMILES) | TEAD-luciferase reporter activity (compound concentration: 200 nM) | TEAD-luciferase reporter activity (compound concentration: 2 uM) | TEAD-luciferase reporter activity (compound concentration: 10 uM)
1 | O=C(c1cc(Cc2n[nH]c(=O)c3ccccc23)ccc1F)N1CCN(C(=O)C2CC2)CC1 [olaparib] | active: 9.11 | inactive: -0.764 | inactive: -1.03
2 | CC/C=C\C/C=C\C/C=C\C/C=C\C/C=C\CCCC(=O)OCC [ethyl icosapentate] | inactive: -0.678 | inactive: 0.0829 | inactive: 3.22
3 | COc1c(N2C[C@@H](N)C3(CC3)C2)c(F)cc2c(=O)c(C(=O)O)cn([C@@H]3C[C@@H]3F)c12 | inactive: -0.142 | inactive: -1.14 | inactive: -0.443
4 | COc1ccc(CC(=O)N2CCC(C(=O)N3CCC(N4Cc5ccccc5C4=O)CC3)CC2)cc1 | inactive: -1.44 | – | inactive: -1.1
5 | N#Cc1ccc(N2N=C3c4ccc(C(=O)N5CCC(O)CC5)nc4CC[C@@H]3[C@@H]2C2CCCC2)cc1Cl | inactive: 0.0497 | inactive: -1.4 | inactive: 1.15
6 | CN(C)C(=O)Nc1cc(CNc2ccccc2C(=O)Nc2ccc3cn(C)nc3c2)ccn1 | inactive: 0.386 | inactive: -0.818 | inactive: 1.28
7 | COc1ccccc1-n1c(CN2CCN(c3ccc(C)cc3)C(C)C2)nc2ccccc2c1=O (stereo not drawn) | inactive: -2.2 | inactive: -0.634 | inactive: -0.356
8 | CC1(C)C=C(C(=O)NCCCN2C(=O)c3ccccc3C2=O)C(C)(C)N1 | inactive: 0.716 | inactive: 0.426 | inactive: 2.23
9 | CCCOc1ccc(S(=O)(=O)NCCC2CCCN2C)cc1-c1nc2c(CCC)nn(C)c2c(=O)[nH]1 (stereo not drawn) [udenafil] | inactive: -0.072 | inactive: 1.36 | inactive: -0.477
10 | COc1ccc(-c2nnc(C(=O)N3CC(Oc4ccc(CN5CC6(COC6)C5)cc4)C3)o2)cc1 | inactive: -0.459 | inactive: -0.232 | inactive: -0.306
11 | C[N+]1(CCCCCCCCCCCCCCCC[N+]2(C)CCCC2)CCCC1 | inactive: -2.62 | inactive: 3.94 | inactive: -0.0596
12 | CCOc1ccccc1O[C@@H](c1ccccc1)[C@H]1CNCCO1 [reboxetine] | inactive: -0.725 | inactive: 0.537 | inactive: 0.435
13 | CC[C@H](C)[C@H](N)C(=O)N[C@H]1CCC(=O)NCC(C(=O)N[C@@H](Cc2ccc(O)cc2)C(=O)N[C@@H](CCCNC(=N)N)C(=O)N[C@@H](CC(C)C)C(=O)N[C@@H](CCCNC(=N)N)C(=O)N[C@@H](Cc2ccc(O)cc2)C(N)=O)NC(=O)[C@@H]2CCCN2C(=O)[C@@H](NC(=O)[C@@H](N)[C@@H](C)CC)CCC(=O)NCC(C(=O)N[C@@H](Cc2ccc(O)cc2)C(=O)N[C@@H](CCCNC(=N)N)C(=O)N[C@@H](CC(C)C)C(=O)N[C@@H](CCCNC(=N)N)C(=O)N[C@@H](Cc2ccc(O)cc2)C(N)=O)NC(=O)[C@@H]2CCCN2C1=O (stereo partly drawn) | inactive: 0.382 | inactive: -0.771 | inactive: -1.27
14 | CNC1CCN(C(=O)C[C@@H](Cc2ccccc2)C(=O)N[C@@H](CSC)C(=O)N[C@@H](CC2CCCCC2)[C@@H](O)C(=O)OC(C)C)CC1 | inactive: 2.48 | inactive: -0.713 | inactive: 2.68
15 | CC(=N)N1CCC(Oc2ccc(N(C/C(F)=C/c3cccc(C(=N)N)c3)S(=O)(=O)CC(=O)O)cc2C(N)=O)CC1 | inactive: -0.658 | inactive: -0.555 | inactive: 1.27
16 | Cc1ccc(NC(=O)c2ccc(CN3CC[C@H](N(C)C)C3)c(C(F)(F)F)c2)cc1Nc1nccc(-c2cncnc2)n1 [bafetinib] | inactive: -0.0704 | inactive: 0.848 | inactive: 4.39
17 | Cn1c(=O)c(F)c(Nc2ccc(I)cc2F)c2c(=O)n(C[C@@H](O)CO)cnc21 | inactive: 0.226 | inactive: -2.24 | inactive: -0.16
18 | CC(C)(C)[C@H](NC(=O)[C@H](CCCc1ccc(Cl)cc1)CC(=O)NO)C(N)=O | inactive: -0.0577 | inactive: -0.365 | inactive: 0.751
19 | O=C(OCc1ccccc1)c1ccccc1 | inactive: -0.383 | inactive: -1.23 | inactive: -0.766
20 | Cc1ccc(CNC2CCCCC2)c(C)c1 | inactive: -1.8 | inactive: -0.627 | inactive: 2.51
21 | CC(CC(=O)c1ccc(-c2ccc(F)cc2F)cc1)C(=O)O (stereo not drawn) [Flobufen] | inactive: -0.833 | inactive: 0.447 | inactive: 1.76
22 | Nc1ccc(-c2ccc(CN3CCOCC3)nc2)c2ccccc12 | inactive: 0.764 | inactive: -0.538 | inactive: -0.231
23 | c1ccc2c(c1)c1c(N3CCCC3)nc(N3CCCC3)nc1n2CCN1CCOCC1 | inactive: 0.155 | inactive: 1.17 | inactive: -0.667

Row | Structure (SMILES) | TEAD-luciferase reporter activity (compound concentration: 200 nM) | TEAD-luciferase reporter activity (compound concentration: 2 uM) | TEAD-luciferase reporter activity (compound concentration: 10 uM)
24 | CCCCCCCOC(=O)NC1=NC(=O)N(C2C[C@H](O)[C@@H](CO)O2)CN1 (stereo partly drawn) | inactive: -0.856 | inactive: -0.64 | inactive: 0.42
25 | CN1C(=O)NC(=O)C1O (stereo not drawn) | inactive: -0.845 | inactive: -1.13 and inactive: -0.571 | inactive: 0.864
26 | CC#C[C@]1(O)CC[C@H]2[C@@H]3CCC4=CC(=O)CCC4=C3[C@@H](c3ccc(N(C)C)cc3)C[C@@]21C | inactive: -0.408 | – | inactive: -0.402
27 | CC#C[C@]1(O)CC[C@H]2[C@@H]3CCC4=CC(=O)CCC4=C3[C@@H](c3ccc(N(C)C)cc3)C[C@@]21C [mifepristone] | – | inactive: 0.262 | –
28 | COc1cc(NCCCC(C)N)c2ncccc2c1 (stereo not drawn) | inactive: -1.04 | inactive: -1.09 | inactive: -1.22
29 | O=C(/C=C/c1ccc(Cl)cc1)N[C@@H](Cc1ccccn1)C(=O)NCC(=O)N1CCC(Oc2cc(C(F)(F)F)ncn2)CC1 | inactive: -0.519 | inactive: -1.11 | inactive: 1.22
30 | COC(=O)[C@]12CCC(C)(C)C[C@H]1[C@H]1C(=O)C=C3[C@@]4(C)C=C(C#N)C(=O)C(C)(C)[C@@H]4CC[C@@]3(C)[C@]1(C)CC2 [bardoxolone methyl] | – | inactive: -2.88 | –
31 | COC(=O)[C@]12CCC(C)(C)C[C@H]1[C@H]1C(=O)C=C3[C@@]4(C)C=C(C#N)C(=O)C(C)(C)[C@@H]4CC[C@@]3(C)[C@]1(C)CC2 [Bardoxolone Methyl] | inactive: 0.856 | – | inactive: -3.65
32 | CCC1OC(=O)C(C)C(OC2CC(C)(OC)C(O)C(C)O2)C(C)C(OC2OC(C)CC(N(C)C)C2O)C(C)(O)CC(C)CN(C)C(C)C(O)C1(C)O (stereo not drawn) [azithromycin] | inactive: -1.61 | inactive: 0.301 | inactive: 0.842
33 | CC(=O)SC[C@H](Cc1ccccc1)C(=O)NCC(=O)OCc1ccccc1 [Dexecadotril] | inactive: 0.376 | inactive: -0.645 | inactive: -0.326
34 | Cc1cc2[nH]cc(C(=O)Nc3ccc(N4CCC(C)(C)C4)cc3C(F)(F)F)c(=O)n2c1 | inactive: -1.02 | inactive: -1.26 | inactive: -0.395
35 | CC(O)c1cc(C(=O)N[C@@H](C)Cn2ccc(-c3ccc(C#N)c(Cl)c3)n2)n[nH]1 (stereo partly drawn) | inactive: -1.65 | inactive: -0.259 | inactive: 0.584
36 | O=C(Nc1ccc(O)c(O)c1)c1cccc(O)c1O | inactive: -1.13 | inactive: -1.32 | inactive: -1.58
37 | CCC[C@H](Nc1nc(-c2ccc(NC(=O)NCC)c(OC)c2)ncc1C)c1cccnc1 [Lexibulin hydrochloride] | inactive: 2.41 | inactive: 2.14 | active: 7.36
38 | [Cl][Ru-3]([Cl])([Cl])([Cl])([n+]1cc2ccccc2[nH]1)[n+]1cc2ccccc2[nH]1.c1ccc2[nH][nH+]cc2c1 | inactive: -0.839 | inactive: 0.823 | inactive: 0.722
39 | Cc1cc(C#N)cc(C)c1Oc1nc(Nc2ccc(C#N)cc2)nc(N)c1Br [etravirine] | inactive: -0.592 | inactive: 0.0684 | inactive: -0.166
40 | COc1ccc2cc(C(C)C(=O)Oc3ccc(C(N)=S)cc3)ccc2c1 (stereo not drawn) | inactive: -1.05 | inactive: -0.0798 | inactive: -0.378
41 | O=C([O-])c1ccc2nc(C(=O)NC3CCN(C4CC4)CC3)n(Cc3cc(-c4ccc(Cl)s4)on3)c2c1 | inactive: -1.31 | inactive: -1.07 | inactive: -1.94
42 | CCCCCCCOc1ccccc1NC(=O)OC(C)CN(CC)CC (stereo not drawn) [carbisocaine] | inactive: -1.11 | inactive: -0.222 | inactive: 1.75
43 | CO[C@H]1/C=C\O[C@@]2(C)Oc3c(C)c(O)c4c(c3C2=O)C2=NC3(CCN(CC(C)C)CC3)NC2=C(NC(=O)/C(C)=C\C=C/[C@H](C)[C@H](O)[C@@H](C)[C@@H](O)[C@@H](C)[C@H](OC(C)=O)[C@@H]1C)C4=O [rifabutin] | – | inactive: -1.59 | –
44 | CO[C@H]1/C=C\O[C@@]2(C)Oc3c(C)c(O)c4c(c3C2=O)C2=NC3(CCN(CC(C)C)CC3)NC2=C(NC(=O)/C(C)=C\C=C/[C@H](C)[C@H](O)[C@@H](C)[C@@H](O)[C@@H](C)[C@H](OC(C)=O)[C@@H]1C)C4=O [Rifabutin (Mycobutin)] | inactive: -2.41 | – | inactive: -0.00677
45 | O=C(c1ccccn1)N1CCN(Cc2ccccc2)CC1 [piberaline] | inactive: -1.12 | inactive: -0.748 | inactive: -0.117
46 | CCCCCCCO[C@@H]1[C@H]2OC(C)(C)O[C@H]2O[C@@H]1C(O)CNCc1ccccn1 (stereo partly drawn) | inactive: 1.04 | inactive: -1.21 | inactive: -1.47
